Test [1] concerns the target IKZF3 degron polypeptide, amino acids 130-189 A153M (HaloTag fusion for BRET) (Homo sapiens). As to the kind of experiment: NanoBRET in 293T cells, 10 µM MG132, 1 µM pomalidomide or DMSO.
For test [2] the target is unchanged. Briefly: NanoBRET at 1 µM pomalidomide and across a range of pomalidomide concentrations. (In general: Bioluminescence resonance energy transfer reports proximity on the nanometre scale.)
Test [3] deals with FMC63-CD28-IKZF3 (HaloTag fusion for BRET). As to the kind of experiment: NanoBRET in 293T cells with pomalidomide.

By UniProt entry, the sequences of proteins in these tests, tags left out. Where a name states a change or a piece, a line headed by the entry shows the natural chain unless it says otherwise.
UniProt Q96SW2: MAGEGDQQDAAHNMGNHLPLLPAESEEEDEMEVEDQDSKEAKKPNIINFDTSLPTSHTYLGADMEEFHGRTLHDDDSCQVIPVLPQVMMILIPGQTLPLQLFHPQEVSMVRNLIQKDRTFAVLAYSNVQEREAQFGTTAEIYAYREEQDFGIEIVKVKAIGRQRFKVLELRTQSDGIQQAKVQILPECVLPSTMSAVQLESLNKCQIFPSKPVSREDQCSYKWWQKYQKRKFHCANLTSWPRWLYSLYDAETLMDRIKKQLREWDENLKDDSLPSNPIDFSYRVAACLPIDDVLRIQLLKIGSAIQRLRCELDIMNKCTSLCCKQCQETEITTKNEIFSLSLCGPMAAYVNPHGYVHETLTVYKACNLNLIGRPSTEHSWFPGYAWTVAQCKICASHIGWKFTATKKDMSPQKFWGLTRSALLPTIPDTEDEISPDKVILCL

No constants are given. Whether binding was seen depends on the method and setting. Some binding calls cover weakened binding; strength is not graded here.

Data on two substances can be found in patent publication US20250074957A1.

As for “CRBN V388A (Nanoluciferase fusion for BRET) (from UniProt Q96SW2 1-442)”, the binding entry in test [1] and in test [2] was “binds” each time. “minCRBN3-NLuc (from UniProt Q96SW2 2-442)”: the binding result in test [3] is given as “binds”.
